These are yes or no findings as the source states them, for the method shown. Binding seen in cells or lysates may run through a third protein. These calls come from enrichment with a bait or labelling near it, and not all partners need be listed. No binding means not detected with the bait.
T1: TBX3 (endogenous, human) (human (endogenous in HEK293)) (UniProt O15119)
T1 sequence: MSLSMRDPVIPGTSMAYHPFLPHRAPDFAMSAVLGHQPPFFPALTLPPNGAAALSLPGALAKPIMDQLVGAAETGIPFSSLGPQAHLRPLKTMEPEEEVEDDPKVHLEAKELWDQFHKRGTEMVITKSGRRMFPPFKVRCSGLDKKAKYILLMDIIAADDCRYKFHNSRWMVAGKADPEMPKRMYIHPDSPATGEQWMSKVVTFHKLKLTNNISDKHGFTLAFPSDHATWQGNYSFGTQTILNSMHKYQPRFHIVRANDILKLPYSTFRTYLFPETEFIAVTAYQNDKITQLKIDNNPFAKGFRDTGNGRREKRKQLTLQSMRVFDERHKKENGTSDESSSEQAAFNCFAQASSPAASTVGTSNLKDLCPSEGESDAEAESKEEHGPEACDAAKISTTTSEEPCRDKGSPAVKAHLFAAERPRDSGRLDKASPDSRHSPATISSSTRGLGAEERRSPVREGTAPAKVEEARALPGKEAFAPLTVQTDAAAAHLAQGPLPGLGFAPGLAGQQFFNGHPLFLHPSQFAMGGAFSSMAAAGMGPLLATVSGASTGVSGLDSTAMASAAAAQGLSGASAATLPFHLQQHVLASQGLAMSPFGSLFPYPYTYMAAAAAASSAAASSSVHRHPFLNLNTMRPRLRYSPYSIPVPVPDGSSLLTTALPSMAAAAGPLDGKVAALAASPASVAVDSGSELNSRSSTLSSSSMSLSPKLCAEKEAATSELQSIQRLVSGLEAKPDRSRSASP

Protein sequences, listed by entry. Tags and fused reporters are not part of them.
UniProt Q15365: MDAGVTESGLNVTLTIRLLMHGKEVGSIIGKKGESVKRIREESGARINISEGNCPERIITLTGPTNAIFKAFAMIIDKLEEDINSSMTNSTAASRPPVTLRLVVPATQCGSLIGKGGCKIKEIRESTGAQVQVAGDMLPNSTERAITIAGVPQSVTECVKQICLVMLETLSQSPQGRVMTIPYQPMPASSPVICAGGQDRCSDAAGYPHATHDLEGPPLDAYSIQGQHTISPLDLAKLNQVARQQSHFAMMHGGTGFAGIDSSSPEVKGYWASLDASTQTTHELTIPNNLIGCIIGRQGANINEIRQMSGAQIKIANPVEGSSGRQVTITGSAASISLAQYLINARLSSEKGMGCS
UniProt O14980: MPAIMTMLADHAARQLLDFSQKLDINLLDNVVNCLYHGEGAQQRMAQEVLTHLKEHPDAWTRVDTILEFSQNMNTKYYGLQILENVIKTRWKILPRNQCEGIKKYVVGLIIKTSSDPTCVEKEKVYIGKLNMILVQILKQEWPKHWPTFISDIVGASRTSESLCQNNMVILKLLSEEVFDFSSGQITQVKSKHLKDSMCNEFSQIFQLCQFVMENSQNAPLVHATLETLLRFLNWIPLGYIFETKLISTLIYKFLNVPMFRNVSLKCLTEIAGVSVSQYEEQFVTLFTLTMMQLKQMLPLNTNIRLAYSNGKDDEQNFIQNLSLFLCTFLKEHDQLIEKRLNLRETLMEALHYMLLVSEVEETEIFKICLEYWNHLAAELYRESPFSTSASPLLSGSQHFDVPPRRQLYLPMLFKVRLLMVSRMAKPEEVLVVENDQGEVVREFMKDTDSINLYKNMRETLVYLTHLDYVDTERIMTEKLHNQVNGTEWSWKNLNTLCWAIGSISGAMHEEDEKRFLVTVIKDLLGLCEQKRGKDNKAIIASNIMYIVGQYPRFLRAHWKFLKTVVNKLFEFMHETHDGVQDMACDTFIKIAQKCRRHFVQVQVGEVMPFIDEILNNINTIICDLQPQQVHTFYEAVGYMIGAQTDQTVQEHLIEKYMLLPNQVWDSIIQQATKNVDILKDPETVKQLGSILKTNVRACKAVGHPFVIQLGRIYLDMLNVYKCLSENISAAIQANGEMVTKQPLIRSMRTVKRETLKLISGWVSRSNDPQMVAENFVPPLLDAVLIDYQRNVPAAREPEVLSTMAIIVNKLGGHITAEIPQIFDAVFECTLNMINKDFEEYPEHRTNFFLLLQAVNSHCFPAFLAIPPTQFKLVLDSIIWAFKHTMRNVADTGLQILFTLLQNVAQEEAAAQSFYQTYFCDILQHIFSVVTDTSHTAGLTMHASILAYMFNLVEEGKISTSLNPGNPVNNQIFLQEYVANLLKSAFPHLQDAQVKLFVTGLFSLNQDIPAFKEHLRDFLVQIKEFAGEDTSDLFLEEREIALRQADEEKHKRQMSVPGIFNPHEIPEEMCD
UniProt P0DMV8: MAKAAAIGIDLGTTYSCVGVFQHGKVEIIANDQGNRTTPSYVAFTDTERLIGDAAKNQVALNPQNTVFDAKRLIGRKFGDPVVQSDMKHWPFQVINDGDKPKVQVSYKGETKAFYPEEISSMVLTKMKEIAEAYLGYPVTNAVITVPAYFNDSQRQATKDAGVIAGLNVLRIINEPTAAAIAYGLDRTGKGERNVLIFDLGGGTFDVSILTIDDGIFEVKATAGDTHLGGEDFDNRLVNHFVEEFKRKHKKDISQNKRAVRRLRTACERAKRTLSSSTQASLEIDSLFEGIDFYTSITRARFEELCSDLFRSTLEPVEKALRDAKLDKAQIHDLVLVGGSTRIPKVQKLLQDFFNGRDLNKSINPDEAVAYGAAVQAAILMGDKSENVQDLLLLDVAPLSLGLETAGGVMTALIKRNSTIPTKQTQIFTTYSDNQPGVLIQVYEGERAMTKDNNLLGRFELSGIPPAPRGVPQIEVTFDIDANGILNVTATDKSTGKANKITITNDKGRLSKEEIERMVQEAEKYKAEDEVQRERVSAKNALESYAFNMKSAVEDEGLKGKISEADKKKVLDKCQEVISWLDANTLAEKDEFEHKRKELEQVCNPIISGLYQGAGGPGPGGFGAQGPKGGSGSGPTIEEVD
UniProt P12956: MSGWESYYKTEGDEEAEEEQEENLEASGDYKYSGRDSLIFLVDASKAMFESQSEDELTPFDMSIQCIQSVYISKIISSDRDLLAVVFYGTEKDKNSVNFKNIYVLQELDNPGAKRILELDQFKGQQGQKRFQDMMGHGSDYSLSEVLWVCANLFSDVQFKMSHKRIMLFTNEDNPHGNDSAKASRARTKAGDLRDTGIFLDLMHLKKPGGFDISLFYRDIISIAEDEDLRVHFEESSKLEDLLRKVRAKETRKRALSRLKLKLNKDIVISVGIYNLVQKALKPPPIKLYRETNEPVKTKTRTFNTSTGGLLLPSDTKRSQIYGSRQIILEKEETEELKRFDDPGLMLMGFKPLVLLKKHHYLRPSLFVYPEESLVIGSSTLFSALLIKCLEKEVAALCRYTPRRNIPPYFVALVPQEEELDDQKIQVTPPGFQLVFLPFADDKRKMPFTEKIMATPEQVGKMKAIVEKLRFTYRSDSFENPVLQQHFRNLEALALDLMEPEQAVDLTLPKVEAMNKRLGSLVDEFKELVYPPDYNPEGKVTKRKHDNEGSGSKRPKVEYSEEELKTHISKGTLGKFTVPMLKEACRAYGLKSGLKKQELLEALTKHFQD
UniProt P31943: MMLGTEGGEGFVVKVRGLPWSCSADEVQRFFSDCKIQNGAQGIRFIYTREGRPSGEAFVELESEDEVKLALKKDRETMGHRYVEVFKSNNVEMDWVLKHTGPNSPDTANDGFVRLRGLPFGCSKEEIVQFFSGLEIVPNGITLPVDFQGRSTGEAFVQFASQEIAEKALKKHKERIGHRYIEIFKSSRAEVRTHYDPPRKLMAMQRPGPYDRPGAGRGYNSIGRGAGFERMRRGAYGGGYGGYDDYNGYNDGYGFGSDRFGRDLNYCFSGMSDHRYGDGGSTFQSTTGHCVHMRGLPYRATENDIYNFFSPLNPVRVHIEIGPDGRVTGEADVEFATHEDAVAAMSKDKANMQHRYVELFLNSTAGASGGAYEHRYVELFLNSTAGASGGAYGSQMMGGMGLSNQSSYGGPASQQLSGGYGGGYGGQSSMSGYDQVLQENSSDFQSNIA
UniProt P17844: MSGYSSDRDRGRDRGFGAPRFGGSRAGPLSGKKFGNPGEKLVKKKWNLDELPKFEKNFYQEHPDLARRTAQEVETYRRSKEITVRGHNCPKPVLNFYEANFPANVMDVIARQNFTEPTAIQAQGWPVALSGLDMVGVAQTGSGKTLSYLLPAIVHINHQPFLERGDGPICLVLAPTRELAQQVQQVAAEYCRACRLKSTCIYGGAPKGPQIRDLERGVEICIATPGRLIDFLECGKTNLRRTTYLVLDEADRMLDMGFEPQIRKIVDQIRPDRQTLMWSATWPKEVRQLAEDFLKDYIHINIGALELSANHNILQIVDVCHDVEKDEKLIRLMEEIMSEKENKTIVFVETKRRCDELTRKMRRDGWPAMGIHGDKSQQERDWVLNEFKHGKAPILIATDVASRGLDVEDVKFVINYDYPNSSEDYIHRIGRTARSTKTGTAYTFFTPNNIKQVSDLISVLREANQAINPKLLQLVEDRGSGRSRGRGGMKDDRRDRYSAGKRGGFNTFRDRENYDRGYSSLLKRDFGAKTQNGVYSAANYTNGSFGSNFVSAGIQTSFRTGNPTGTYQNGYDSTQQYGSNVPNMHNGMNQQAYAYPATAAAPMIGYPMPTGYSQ
UniProt O00571: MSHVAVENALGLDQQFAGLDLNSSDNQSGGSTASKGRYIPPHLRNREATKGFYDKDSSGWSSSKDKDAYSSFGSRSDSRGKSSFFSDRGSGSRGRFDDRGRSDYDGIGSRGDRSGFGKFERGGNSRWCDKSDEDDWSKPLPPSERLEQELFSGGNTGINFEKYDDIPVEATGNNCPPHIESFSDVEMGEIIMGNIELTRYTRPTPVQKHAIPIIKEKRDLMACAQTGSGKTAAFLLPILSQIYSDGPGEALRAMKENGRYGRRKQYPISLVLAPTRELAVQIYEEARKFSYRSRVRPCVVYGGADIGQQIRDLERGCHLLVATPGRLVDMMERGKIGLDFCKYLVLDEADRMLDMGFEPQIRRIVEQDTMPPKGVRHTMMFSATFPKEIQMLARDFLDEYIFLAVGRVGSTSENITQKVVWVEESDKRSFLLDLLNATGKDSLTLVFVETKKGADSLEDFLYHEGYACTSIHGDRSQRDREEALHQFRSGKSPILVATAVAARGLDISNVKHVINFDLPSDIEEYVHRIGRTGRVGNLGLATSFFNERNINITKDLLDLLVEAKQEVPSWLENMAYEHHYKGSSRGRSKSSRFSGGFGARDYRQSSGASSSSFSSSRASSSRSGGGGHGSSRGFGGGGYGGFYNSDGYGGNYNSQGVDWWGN
UniProt P34931: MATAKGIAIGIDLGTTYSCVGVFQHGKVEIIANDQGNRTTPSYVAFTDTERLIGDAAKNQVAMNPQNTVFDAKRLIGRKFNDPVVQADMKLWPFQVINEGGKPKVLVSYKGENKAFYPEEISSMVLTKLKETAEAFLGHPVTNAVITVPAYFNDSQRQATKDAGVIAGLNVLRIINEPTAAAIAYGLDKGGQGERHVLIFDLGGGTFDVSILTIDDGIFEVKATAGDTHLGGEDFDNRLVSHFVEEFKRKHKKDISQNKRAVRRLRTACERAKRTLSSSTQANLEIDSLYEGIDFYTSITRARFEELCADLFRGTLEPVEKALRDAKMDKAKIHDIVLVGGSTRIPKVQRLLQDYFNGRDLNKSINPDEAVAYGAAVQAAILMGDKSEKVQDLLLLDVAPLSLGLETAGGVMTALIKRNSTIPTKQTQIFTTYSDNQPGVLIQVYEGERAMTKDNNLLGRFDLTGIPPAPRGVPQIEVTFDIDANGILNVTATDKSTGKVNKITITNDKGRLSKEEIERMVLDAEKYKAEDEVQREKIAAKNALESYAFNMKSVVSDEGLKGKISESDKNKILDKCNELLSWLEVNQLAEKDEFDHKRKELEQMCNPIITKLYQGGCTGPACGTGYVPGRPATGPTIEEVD
UniProt Q8VEK3: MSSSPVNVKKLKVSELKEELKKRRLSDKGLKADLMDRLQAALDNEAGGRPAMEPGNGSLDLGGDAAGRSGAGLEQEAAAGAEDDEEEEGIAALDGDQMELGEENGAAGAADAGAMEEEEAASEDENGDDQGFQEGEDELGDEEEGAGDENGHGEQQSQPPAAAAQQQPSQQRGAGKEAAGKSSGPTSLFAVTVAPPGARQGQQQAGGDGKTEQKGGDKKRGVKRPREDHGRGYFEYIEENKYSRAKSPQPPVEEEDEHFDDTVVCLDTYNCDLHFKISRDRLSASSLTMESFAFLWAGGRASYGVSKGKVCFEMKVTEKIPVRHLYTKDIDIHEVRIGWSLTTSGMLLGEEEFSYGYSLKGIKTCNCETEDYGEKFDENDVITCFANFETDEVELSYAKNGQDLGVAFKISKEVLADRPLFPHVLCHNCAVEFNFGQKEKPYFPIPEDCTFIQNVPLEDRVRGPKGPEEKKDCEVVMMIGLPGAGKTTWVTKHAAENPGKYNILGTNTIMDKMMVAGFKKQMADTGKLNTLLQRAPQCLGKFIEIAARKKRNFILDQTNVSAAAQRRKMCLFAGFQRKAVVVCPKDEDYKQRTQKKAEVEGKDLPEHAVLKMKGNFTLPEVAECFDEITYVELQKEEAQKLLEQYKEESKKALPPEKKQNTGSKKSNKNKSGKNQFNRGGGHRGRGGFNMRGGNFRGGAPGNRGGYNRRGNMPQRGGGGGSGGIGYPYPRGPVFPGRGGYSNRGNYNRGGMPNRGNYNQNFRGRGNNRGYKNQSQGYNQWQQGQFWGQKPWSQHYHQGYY
UniProt Q32P51: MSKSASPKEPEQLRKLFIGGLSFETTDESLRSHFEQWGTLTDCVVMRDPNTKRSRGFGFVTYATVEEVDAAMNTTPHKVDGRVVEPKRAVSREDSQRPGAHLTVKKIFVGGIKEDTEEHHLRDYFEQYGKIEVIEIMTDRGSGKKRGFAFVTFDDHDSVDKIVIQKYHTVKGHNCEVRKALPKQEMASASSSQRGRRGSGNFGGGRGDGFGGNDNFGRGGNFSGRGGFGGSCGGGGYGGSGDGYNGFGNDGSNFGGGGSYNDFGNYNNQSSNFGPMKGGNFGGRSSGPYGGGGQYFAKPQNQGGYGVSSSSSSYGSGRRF

T2: Tbx3 (endogenous, mouse) (mouse (endogenous in e10.5 embryos)) (UniProt P70324)
T2 sequence: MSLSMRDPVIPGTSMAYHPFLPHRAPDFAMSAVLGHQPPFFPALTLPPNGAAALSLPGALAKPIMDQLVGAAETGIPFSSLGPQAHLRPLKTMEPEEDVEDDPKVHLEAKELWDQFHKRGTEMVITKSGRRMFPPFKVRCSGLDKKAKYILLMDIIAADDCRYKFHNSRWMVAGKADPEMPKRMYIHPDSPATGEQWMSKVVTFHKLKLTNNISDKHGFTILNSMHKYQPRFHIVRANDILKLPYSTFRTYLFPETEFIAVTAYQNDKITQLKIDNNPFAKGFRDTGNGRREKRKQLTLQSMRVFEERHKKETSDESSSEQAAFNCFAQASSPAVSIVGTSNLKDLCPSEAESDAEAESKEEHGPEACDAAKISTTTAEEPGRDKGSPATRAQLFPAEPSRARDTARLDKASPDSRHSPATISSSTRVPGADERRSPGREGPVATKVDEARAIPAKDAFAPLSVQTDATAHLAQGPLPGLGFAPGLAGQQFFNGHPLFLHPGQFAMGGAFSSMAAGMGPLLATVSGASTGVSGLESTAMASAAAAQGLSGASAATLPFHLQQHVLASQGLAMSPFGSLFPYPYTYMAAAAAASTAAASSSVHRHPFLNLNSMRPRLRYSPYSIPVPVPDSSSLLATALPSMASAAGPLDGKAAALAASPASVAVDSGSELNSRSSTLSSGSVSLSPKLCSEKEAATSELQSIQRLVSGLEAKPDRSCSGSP

B1: Ribonucleoprotein PTB-binding 1 (protein, UniProt Q8IY67 1-606)
chain: MAADVSVTHRPPLSPKSGAEVEAGDAAERRAPEEELPPLDPEEIRKRLEHTERQFRNRRKILIRGLPGDVTNQEVHDLLSDYELKYCFVDKYKGTAFVTLLNGEQAEAAINAFHQSRLRERELSVQLQPTDALLCVANLPPSLTQQQFEELVRPFGSLERCFLVYSERTGQSKGYGFAEYMKKDSAARAKSDLLGKPLGPRTLYVHWTDAGQLTPALLHSRCLCVDRLPPGFNDVDALCRALSAVHSPTFCQLACGQDGQLKGFAVLEYETAEMAEEAQQQADGLSLGGSHLRVSFCAPGPPGRSMLAALIAAQATALNRGKGLLPEPNILQLLNNLGPSASLQLLLNPLLHGSAGGKQGLLGAPPAMPLLNGPALSTALLQLALQTQGQKKPGILGDSPLGALQPGAQPANPLLGELPAGGGLPPELPPRRGKPPPLLPSVLGPAGGDREALGLGPPAAQLTPPPAPVGLRGSGLRGPLSHFYSGSPTSYFTSGLQAGLKQSHLSKAIGSSPLGSGEGLLGLSPGPNGHSHLLKVRAGGGDMQGWEAPAPQRPLTRPALPSVSRPHWAARNAALPTCCPRPSPAQKAAMWASTPRASAATTRTPT
B2: Raver 1 (mouse) (protein, UniProt Q9CW46 1-748)
chain: MAADVSVTHRPPLSPEAEAEAETPETVDRRAPEQELPPLDPEEIRKRLEHTERQFRNRRKILIRGLPGDVTNQEVHDLLSDYELKYCFVDKYKGTAFVTLLNGEQAEAAINTFHQSRLRERELSVQLQPTDALLCVANLPPSLTQAQFEELVRPFGSLERCFLVYSERTGHSKGYGFAEYMKKDSAARAKSDLLGKPLGPRTLYVHWTDAGQLTPALLHSRCLCVDHLPPGFSDVDALRRALSVVYTPTFCQLACGQDGQLKGFAVLEYETAEMAEAAQERADGQALGDSHLRVSFCAPGPPGRSMLAALIAAQATALNRGKGLLPEPNLLQLLNNLGPSASLQLLLNPLLHGGASGKQGLLGAPPAMPLLSGPALSTALLQLALQSQSQNQSQGQKKPGILGDSPLGTLQAGAQPSNSLLGELSAGGGLAPELPPRRGKPQPLLPPLLGPSGGDREPMGLGPPATQLTPPPAPVGLRGSNHRGLPKDSGPLPTPPGVSLLGEPPKDYRIPLNPYLNLHSLLPSSNLAGKETRGWGGSGRGRRPAEPPLPSPAVPGGGSGSNNGNKAFQMKSRLLSPIASNRLPPEPGLPDSYGFDYPTDVGPRRLFSHPREPTLGAHGPSRHKMSPPPSSFNEPRSGGGSGGPLSHFYSGSPTSYFTSGLQAGLKQSHLNKAVGSSPMGSSEGLLGLGPGPNGHSHLLKTPLGGQKRSFSHLLPSPEPSPEGSYVGQHSQGLGGHYADSYLKRKRIF
B3: Heterogeneous nuclear ribonucleoprotein M (protein, UniProt P52272 1-730)
chain: MAAGVEAAAEVAATEIKMEEESGAPGVPSGNGAPGPKGEGERPAQNEKRKEKNIKRGGNRFEPYANPTKRYRAFITNIPFDVKWQSLKDLVKEKVGEVTYVELLMDAEGKSRGCAVVEFKMEESMKKAAEVLNKHSLSGRPLKVKEDPDGEHARRAMQKVMATTGGMGMGPGGPGMITIPPSILNNPNIPNEIIHALQAGRLGSTVFVANLDYKVGWKKLKEVFSMAGVVVRADILEDKDGKSRGIGTVTFEQSIEAVQAISMFNGQLLFDRPMHVKMDERALPKGDFFPPERPQQLPHGLGGIGMGLGPGGQPIDANHLNKGIGMGNIGPAGMGMEGIGFGINKMGGMEGPFGGGMENMGRFGSGMNMGRINEILSNALKRGEIIAKQGGGGGGGSVPGIERMGPGIDRLGGAGMERMGAGLGHGMDRVGSEIERMGLVMDRMGSVERMGSGIERMGPLGLDHMASSIERMGQTMERIGSGVERMGAGMGFGLERMAAPIDRVGQTIERMGSGVERMGPAIERMGLSMERMVPAGMGAGLERMGPVMDRMATGLERMGANNLERMGLERMGANSLERMGLERMGANSLERMGPAMGPALGAGIERMGLAMGGGGGASFDRAIEMERGNFGGSFAGSFGGAGGHAPGVARKACQIFVRNLPFDFTWKMLKDKFNECGHVLYADIKMENGKSKGCGVVKFESPEVAERACRMMNGMKLSGREIDVRIDRNA
B4: SC35 (human) (protein, UniProt Q01130 1-221)
chain: MSYGRPPPDVEGMTSLKVDNLTYRTSPDTLRRVFEKYGRVGDVYIPRDRYTKESRGFAFVRFHDKRDAEDAMDAMDGAVLDGRELRVQMARYGRPPDSHHSRRGPPPRRYGGGGYGRRSRSPRRRRRSRSRSRSRSRSRSRSRYSRSKSRSRTRSRSRSTSKSRSARRSKSKSSSVSRSRSRSRSRSRSRSPPPVSKRESKSRSRSKSPPKSPEEEGAVSS

Columns and labels:
[1] = target: T1, TBX3 (endogenous, human) (human (endogenous in HEK293)); test: affinity purification with mass spectrometry; IP of HEK293 lysates with a custom polyclonal antibody against a C-terminal peptide of TBX3; SDS-PAGE bands, tandem MS; N = 4; only proteins in at least two IP/MS datasets and not in negative control IgG IPs
[2] = target: T2, Tbx3 (endogenous, mouse) (mouse (endogenous in e10.5 embryos)); test: affinity purification with mass spectrometry; IP of e10.5 mouse embryo lysates with a custom polyclonal antibody against a C-terminal peptide of TBX3; SDS-PAGE bands, tandem MS; N = 3; only proteins in at least two IP/MS datasets and not in negative control IgG IPs

binding [1] | binding [2] | Molecule
binds |  | PTB1 (from UniProt P26599 1-557)
binds |  | Poly(rC) binding protein 1 (from UniProt Q15365 1-356)
binds |  | Heat shock 70 kDa protein 8 (from UniProt P11142 1-646)
binds |  | Probable ATP-dependent RNA helicase DDX17 (from UniProt Q92841 1-729)
 | binds | hnrnp k (mouse) (from UniProt P61979 1-463)
 | no binding | SC35 (mouse) (from UniProt Q62093 1-221)
binds |  | XPO1 (from UniProt O14980 1-1071)
binds |  | Heat shock 70 kDa protein 1A; heat shock 70 kDa protein 1B (from UniProt P0DMV8 1-641)
binds |  | XRCC6 (from UniProt P12956 1-609)
binds |  | Heterogeneous nuclear ribonucleoprotein H1 (from UniProt P31943 1-449)
binds |  | ATP-dependent RNA helicase DDX5 (from UniProt P17844 1-614)
binds |  | ATP-dependent RNA helicase DDX3X (from UniProt O00571 1-662)
binds |  | Heat shock 70 kDa protein 1-like (from UniProt P34931 1-641)
 | binds | hnrnp u (mouse) (from UniProt Q8VEK3 1-800)
binds |  | Heterogeneous nuclear ribonucleoprotein A1-like 2 (from UniProt Q32P51 1-320)
binds |  | Heat shock 70 kDa protein 2 (from UniProt P54652 1-639)
binds |  | Heterogeneous nuclear ribonucleoprotein K (from UniProt P61978 1-463)
binds |  | Poly(A) binding protein, cytoplasmic 1 (from UniProt P11940 1-636)
binds |  | B1
 | binds | B2
binds |  | B3
no binding |  | B4

Reference: paper PMC3967948
